Data taken from paper PMC6070288.
No constants are given. Whether binding was seen depends on the method and setting. For some assays here: In cells and extracts the contact can be indirect. Some binding calls cover weakened binding; strength is not graded here.

Chains of the proteins cited; added tags and fusions are not shown. Residues count along the entry.
UniProt Q14416, residues 19-567: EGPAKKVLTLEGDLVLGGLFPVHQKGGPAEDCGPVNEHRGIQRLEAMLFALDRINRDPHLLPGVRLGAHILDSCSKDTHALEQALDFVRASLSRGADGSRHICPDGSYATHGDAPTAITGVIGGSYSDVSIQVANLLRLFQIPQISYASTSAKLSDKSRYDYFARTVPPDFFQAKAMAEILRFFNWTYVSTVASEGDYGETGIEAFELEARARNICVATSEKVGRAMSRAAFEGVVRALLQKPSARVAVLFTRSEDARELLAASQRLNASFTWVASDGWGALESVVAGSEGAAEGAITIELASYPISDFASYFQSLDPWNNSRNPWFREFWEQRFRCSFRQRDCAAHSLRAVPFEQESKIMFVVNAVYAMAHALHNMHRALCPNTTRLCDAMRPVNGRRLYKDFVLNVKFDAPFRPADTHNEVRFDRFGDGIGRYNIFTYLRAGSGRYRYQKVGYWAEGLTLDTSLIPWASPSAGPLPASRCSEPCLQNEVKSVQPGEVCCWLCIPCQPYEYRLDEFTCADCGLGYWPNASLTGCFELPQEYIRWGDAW
UniProt P03522, residues 17-511: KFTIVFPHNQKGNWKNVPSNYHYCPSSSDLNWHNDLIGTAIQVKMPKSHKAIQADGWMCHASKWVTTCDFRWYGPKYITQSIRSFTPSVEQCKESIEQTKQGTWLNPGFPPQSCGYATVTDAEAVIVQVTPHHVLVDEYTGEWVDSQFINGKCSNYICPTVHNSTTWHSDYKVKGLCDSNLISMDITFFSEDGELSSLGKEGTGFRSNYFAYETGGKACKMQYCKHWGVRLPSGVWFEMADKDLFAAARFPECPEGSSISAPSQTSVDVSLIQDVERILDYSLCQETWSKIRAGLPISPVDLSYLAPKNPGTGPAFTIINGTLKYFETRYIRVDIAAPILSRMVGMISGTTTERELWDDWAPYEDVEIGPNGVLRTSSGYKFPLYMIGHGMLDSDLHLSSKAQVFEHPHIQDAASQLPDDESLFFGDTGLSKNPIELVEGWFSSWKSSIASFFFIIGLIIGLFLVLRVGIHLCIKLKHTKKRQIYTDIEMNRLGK
UniProt P03524, residues 41-450: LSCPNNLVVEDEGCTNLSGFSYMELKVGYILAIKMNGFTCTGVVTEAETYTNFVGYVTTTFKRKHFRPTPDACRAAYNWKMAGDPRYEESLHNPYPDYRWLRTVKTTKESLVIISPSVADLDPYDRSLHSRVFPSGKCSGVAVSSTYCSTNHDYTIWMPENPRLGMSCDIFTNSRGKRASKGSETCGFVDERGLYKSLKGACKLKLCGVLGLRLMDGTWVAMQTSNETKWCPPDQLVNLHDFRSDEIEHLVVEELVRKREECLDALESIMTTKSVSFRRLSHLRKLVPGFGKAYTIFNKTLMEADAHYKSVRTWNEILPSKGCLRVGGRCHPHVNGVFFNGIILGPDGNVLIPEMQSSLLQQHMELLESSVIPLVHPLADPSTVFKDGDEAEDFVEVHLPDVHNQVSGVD

Tests used:
[1] = target: N-terminal GST-tagged soluble ectodomain of mGluR2 (amino acids 19-567) (UniProt Q14416); assay: pull-down; only the target purified
[2] = target: N-terminal GST-tagged soluble ectodomain of mGluR2 (amino acids 19-567) (UniProt Q14416); assay: pull-down; both purified

| Substance | binding [1] | binding [2] |
| --- | --- | --- |
| Myc-tagged vesicular stomatitis virus G (from UniProt P03522 17-511) | no binding |  |
| N-terminal His-tagged ERA G protein ectodomain soluble protein (amino acids 41-450) (from UniProt P03524 41-450) (domain or fragment) |  | binds |
